{"source": "PubChem BioAssay AID504774 (Drosophila RNAi Screening Center, 2011)", "assay": "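Fly genes whose loss alters survival after alkylation damage to DNA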 (primary screen)", "cells": "Drosophila Kc167 cells", "reagent": "long dsRNA against Drosophila genes, about 0.25 µg dsRNA per well", "timing": "about 6 days: 3 days knock-down, then 3 days with or without MMS", "treatment": "methyl methanesulphonate 0.004% (w/v) for 3 days after knock-down", "measured": "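Viability in wells given MMS, read as ATP luminescence, normalised by quantiles plate by plate and averaged across replicates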", "scale": "mean viability with MMS and viability with MMS: higher = more surviving cells after MMS", "note": "The deposit covers about 23,000 reagents; below is an unselected part of those that have a named target and a result. 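Values are quantile-normalised luminescence on an arbitrary scale; higher means more cells surviving MMS.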 Reagents against one gene are numbered here. A plus sign joins genes that one reagent is predicted to hit. Not all columns of the deposit are shown."}
{"gene":"Uba3","reagent no.":1,"mean viability with MMS":3.65e6,"viability with MMS, replicate 1":4.10e6}
{"gene":"r2d2","reagent no.":1,"mean viability with MMS":3.44e6,"viability with MMS, replicate 1":3.81e6}
{"gene":"CG7296","reagent no.":1,"mean viability with MMS":3.62e6,"viability with MMS, replicate 1":4.12e6}
{"gene":"CG7296","reagent no.":2,"mean viability with MMS":3.49e6,"viability with MMS, replicate 1":3.99e6}
{"gene":"Lcp65Ag3 + Lcp65Ag2 + Lcp65Ag1","reagent no.":1,"mean viability with MMS":3.89e6,"viability with MMS, replicate 1":4.23e6}
{"gene":"Lcp65Ag3 + Lcp65Ag2 + Lcp65Ag1","reagent no.":2,"mean viability with MMS":3.82e6,"viability with MMS, replicate 1":4.09e6}
{"gene":"Polr3F","reagent no.":1,"mean viability with MMS":3.25e6,"viability with MMS, replicate 1":3.70e6}
{"gene":"CG11279","reagent no.":1,"mean viability with MMS":3.51e6,"viability with MMS, replicate 1":3.86e6}
{"gene":"Spt20","reagent no.":1,"mean viability with MMS":2.95e6,"viability with MMS, replicate 1":3.48e6}
{"gene":"Spt20","reagent no.":2,"mean viability with MMS":3.40e6,"viability with MMS, replicate 1":3.74e6}
{"gene":"CG1951","reagent no.":1,"mean viability with MMS":3.47e6,"viability with MMS, replicate 1":3.84e6}
{"gene":"CG15200","reagent no.":1,"mean viability with MMS":3.51e6,"viability with MMS, replicate 1":3.99e6}
{"gene":"CG8034","reagent no.":1,"mean viability with MMS":3.38e6,"viability with MMS, replicate 1":3.78e6}
{"gene":"CG31807","reagent no.":1,"mean viability with MMS":3.51e6,"viability with MMS, replicate 1":3.90e6}
{"gene":"Pbp45","reagent no.":1,"mean viability with MMS":3.55e6,"viability with MMS, replicate 1":3.87e6}
{"gene":"CG13428","reagent no.":1,"mean viability with MMS":3.41e6,"viability with MMS, replicate 1":3.87e6}
{"gene":"Ube4A","reagent no.":1,"mean viability with MMS":3.44e6,"viability with MMS, replicate 1":3.94e6}
{"gene":"RpS4","reagent no.":1,"mean viability with MMS":3.03e6,"viability with MMS, replicate 1":3.51e6}
{"gene":"Surf4","reagent no.":1,"mean viability with MMS":3.45e6,"viability with MMS, replicate 1":3.77e6}
{"gene":"CG5504","reagent no.":1,"mean viability with MMS":3.63e6,"viability with MMS, replicate 1":3.90e6}
{"gene":"CG11674","reagent no.":1,"mean viability with MMS":3.62e6,"viability with MMS, replicate 1":3.93e6}
{"gene":"Dhc93AB","reagent no.":1,"mean viability with MMS":3.40e6,"viability with MMS, replicate 1":3.80e6}
{"gene":"CG9029","reagent no.":1,"mean viability with MMS":3.61e6,"viability with MMS, replicate 1":4.05e6}
{"gene":"MCU","reagent no.":1,"mean viability with MMS":3.47e6,"viability with MMS, replicate 1":3.95e6}
{"gene":"CG8925","reagent no.":1,"mean viability with MMS":3.50e6,"viability with MMS, replicate 1":3.89e6}
{"gene":"CG8925","reagent no.":2,"mean viability with MMS":3.65e6,"viability with MMS, replicate 1":3.93e6}
{"gene":"CG8925","reagent no.":3,"mean viability with MMS":3.63e6,"viability with MMS, replicate 1":4.04e6}
{"gene":"Tmf","reagent no.":1,"mean viability with MMS":3.58e6,"viability with MMS, replicate 1":4.12e6}
{"gene":"CREG","reagent no.":1,"mean viability with MMS":3.51e6,"viability with MMS, replicate 1":4.03e6}
{"gene":"Hsp67Ba","reagent no.":1,"mean viability with MMS":3.38e6,"viability with MMS, replicate 1":3.78e6}
{"gene":"Sry-alpha","reagent no.":1,"mean viability with MMS":3.51e6,"viability with MMS, replicate 1":4.17e6}
{"gene":"TwdlK","reagent no.":1,"mean viability with MMS":3.32e6,"viability with MMS, replicate 1":3.71e6}
{"gene":"Mst36Fa","reagent no.":1,"mean viability with MMS":3.55e6,"viability with MMS, replicate 1":4.02e6}
{"gene":"Hip14","reagent no.":1,"mean viability with MMS":3.52e6,"viability with MMS, replicate 1":4.02e6}
{"gene":"tst","reagent no.":1,"mean viability with MMS":3.48e6,"viability with MMS, replicate 1":4.13e6}
